Measurements: publication PMC6450621, “Changes of drug pharmacokinetics mediated by downregulation of kidney organic cation transporters Mate1 and Oct2 in a rat model of hyperuricemia” (PLoS ONE, 2019)

Assay: Kidney function markers (plasma BUN and creatinine) on Day 10 in control and hyperuricemic rats
Assay type: in vivo, rat

In the case of `CN1CC(=O)NC1=N` [Creatinine, creatinine], the “Plasma Creatinine” value (control rats, Day 10, individual rat) is reported as 13.0 µM and 12.5 µM and 12.8 µM, the “Plasma Creatinine” value (control rats, Day 10, mean) is reported as 12.8 µM and the “Plasma Creatinine” value (hyperuricemic rats, Day 10, individual rat) is reported as 49.9 µM and 42.8 µM and 29.5 µM and 18.0 µM and 31.8 µM and 29.9 µM and 32.9 µM. The “Plasma Creatinine” value (hyperuricemic rats, Day 10, mean) was 33.6 µM.

Several values for one entry are separate records, joined by “and”; a condition that tells them apart may be missing. Identical values can stand only once.
